Reference: paper PMC8213057, “Targeting ALK2: An Open Science Approach to Developing Therapeutics for the Treatment of Diffuse Intrinsic Pontine Glioma” (Journal of Medicinal Chemistry, 2020)

Sequences of proteins named here, by UniProt entry; tags and fusion partners are left off. A change or cut given only in a name is not applied to a line headed by its entry. Residues count along the entry.
UniProt P00519, whole entry: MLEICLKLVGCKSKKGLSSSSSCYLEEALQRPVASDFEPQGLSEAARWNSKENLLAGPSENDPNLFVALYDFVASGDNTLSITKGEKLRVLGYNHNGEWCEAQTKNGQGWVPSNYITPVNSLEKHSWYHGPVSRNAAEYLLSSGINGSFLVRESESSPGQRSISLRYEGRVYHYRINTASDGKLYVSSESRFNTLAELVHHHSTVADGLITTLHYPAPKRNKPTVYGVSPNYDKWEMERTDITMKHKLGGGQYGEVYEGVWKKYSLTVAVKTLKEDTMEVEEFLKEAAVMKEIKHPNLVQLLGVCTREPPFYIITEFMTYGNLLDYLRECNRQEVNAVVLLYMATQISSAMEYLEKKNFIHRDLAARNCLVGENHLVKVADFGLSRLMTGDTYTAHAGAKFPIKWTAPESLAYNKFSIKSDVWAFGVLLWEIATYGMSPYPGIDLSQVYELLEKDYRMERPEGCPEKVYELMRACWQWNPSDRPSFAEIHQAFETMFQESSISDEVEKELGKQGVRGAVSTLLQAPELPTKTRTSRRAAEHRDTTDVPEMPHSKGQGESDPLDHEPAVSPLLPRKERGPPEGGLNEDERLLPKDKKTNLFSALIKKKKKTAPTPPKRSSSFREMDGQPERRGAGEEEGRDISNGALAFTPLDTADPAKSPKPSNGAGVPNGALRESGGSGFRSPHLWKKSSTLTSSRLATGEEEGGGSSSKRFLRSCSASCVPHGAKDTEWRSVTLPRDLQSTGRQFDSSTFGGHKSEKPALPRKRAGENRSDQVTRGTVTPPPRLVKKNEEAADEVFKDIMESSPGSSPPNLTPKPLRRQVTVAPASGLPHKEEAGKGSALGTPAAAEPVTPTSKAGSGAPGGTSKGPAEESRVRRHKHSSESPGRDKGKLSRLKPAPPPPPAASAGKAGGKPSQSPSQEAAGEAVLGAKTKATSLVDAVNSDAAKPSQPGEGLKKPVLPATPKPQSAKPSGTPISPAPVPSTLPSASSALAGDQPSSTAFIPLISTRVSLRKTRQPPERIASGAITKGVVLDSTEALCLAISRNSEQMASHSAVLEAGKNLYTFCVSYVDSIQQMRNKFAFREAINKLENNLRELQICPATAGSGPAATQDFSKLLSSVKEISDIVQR
UniProt P42684, whole entry: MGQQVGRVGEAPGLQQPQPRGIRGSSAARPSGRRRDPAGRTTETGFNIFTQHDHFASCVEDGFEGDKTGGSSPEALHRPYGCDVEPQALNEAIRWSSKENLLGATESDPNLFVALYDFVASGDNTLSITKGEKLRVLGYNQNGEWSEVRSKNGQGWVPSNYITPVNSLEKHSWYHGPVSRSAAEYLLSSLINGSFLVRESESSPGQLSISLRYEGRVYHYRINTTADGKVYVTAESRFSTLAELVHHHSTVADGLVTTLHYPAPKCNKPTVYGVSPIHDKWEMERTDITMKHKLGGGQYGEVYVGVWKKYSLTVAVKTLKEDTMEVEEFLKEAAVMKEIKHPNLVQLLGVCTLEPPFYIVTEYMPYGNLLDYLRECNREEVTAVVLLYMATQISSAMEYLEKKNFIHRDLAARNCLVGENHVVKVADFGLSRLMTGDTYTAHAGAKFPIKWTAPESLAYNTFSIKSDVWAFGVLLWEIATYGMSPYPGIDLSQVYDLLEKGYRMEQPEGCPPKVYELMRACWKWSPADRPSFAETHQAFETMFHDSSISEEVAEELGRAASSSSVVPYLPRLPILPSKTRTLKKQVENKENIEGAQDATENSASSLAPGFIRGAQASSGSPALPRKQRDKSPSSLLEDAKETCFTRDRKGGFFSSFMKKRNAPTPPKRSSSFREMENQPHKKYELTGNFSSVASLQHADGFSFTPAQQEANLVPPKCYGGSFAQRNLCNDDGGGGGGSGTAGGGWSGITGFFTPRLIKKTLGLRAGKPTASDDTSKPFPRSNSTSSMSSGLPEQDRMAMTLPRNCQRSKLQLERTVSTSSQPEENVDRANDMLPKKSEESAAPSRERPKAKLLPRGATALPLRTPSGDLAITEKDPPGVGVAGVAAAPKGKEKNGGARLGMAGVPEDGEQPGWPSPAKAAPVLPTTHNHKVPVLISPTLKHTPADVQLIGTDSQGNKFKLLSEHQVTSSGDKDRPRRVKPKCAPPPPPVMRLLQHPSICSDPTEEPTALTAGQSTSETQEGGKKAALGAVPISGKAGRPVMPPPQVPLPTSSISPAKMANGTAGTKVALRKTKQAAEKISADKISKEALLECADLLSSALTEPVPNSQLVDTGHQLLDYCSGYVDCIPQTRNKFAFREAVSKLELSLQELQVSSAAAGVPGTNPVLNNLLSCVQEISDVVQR
UniProt O14920: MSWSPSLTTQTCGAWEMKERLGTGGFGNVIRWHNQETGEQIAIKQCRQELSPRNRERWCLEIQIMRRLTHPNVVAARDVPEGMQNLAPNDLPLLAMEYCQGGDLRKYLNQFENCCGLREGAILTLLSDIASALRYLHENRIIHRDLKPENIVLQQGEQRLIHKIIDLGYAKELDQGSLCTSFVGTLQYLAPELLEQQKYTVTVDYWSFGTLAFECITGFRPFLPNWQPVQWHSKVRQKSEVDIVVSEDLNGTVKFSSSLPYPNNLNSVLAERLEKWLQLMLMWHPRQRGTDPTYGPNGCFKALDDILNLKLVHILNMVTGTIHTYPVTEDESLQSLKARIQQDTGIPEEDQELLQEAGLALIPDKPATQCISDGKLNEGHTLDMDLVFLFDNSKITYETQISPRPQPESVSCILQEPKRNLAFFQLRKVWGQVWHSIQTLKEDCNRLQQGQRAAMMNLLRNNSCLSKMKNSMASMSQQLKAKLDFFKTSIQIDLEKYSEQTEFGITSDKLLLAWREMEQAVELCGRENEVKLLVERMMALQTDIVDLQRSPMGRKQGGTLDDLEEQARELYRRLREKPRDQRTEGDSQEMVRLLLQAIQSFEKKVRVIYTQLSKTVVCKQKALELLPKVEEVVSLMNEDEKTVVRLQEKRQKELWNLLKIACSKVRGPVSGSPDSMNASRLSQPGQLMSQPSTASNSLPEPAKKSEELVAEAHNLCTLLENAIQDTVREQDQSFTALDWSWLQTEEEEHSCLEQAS
UniProt Q15349, whole entry: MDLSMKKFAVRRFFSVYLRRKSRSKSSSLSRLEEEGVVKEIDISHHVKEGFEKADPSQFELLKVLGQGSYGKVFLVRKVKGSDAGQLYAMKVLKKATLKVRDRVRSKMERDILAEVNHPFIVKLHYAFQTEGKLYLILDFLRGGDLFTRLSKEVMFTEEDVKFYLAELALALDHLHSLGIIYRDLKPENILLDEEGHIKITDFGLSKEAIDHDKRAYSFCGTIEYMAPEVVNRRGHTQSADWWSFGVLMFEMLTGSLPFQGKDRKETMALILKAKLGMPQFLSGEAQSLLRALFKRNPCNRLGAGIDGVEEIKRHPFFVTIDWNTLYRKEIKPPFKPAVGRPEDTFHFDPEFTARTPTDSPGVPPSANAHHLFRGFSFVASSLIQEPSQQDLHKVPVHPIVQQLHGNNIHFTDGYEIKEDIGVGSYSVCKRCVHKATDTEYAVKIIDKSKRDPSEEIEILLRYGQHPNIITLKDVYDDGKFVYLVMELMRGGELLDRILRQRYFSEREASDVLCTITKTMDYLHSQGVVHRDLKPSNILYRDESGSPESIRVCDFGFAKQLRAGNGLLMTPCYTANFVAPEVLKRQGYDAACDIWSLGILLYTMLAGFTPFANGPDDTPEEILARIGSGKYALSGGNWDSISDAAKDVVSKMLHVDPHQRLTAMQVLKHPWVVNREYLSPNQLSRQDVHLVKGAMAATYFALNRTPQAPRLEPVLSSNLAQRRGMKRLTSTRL
UniProt Q86UX6: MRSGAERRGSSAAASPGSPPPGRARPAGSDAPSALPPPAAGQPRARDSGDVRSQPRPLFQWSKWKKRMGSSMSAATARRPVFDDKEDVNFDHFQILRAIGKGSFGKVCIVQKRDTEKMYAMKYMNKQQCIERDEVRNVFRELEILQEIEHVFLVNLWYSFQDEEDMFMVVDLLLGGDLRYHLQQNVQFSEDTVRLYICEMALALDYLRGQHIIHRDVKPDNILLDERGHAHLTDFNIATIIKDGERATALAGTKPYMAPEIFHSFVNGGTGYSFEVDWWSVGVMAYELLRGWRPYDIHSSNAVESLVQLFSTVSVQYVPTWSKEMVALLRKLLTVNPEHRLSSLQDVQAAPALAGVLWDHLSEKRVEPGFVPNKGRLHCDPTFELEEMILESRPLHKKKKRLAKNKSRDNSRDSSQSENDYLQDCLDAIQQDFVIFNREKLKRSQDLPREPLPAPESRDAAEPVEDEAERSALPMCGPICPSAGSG
UniProt Q96RR4, whole entry: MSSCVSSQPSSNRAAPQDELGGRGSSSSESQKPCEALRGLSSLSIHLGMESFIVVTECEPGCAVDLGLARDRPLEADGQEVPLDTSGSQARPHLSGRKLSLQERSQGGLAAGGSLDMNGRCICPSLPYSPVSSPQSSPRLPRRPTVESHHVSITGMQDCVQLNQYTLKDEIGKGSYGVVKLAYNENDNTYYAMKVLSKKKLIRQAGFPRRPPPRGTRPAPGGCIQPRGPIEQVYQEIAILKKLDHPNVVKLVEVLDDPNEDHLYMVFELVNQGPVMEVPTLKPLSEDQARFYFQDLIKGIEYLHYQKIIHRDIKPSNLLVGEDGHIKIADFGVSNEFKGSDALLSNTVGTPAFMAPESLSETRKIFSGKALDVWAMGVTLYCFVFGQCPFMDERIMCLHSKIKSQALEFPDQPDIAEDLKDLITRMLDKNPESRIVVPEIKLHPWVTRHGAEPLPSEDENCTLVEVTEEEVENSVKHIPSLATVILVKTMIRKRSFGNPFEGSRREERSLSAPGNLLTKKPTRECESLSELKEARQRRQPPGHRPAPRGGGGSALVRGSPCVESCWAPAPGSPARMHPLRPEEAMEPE
UniProt P54753, 34-998: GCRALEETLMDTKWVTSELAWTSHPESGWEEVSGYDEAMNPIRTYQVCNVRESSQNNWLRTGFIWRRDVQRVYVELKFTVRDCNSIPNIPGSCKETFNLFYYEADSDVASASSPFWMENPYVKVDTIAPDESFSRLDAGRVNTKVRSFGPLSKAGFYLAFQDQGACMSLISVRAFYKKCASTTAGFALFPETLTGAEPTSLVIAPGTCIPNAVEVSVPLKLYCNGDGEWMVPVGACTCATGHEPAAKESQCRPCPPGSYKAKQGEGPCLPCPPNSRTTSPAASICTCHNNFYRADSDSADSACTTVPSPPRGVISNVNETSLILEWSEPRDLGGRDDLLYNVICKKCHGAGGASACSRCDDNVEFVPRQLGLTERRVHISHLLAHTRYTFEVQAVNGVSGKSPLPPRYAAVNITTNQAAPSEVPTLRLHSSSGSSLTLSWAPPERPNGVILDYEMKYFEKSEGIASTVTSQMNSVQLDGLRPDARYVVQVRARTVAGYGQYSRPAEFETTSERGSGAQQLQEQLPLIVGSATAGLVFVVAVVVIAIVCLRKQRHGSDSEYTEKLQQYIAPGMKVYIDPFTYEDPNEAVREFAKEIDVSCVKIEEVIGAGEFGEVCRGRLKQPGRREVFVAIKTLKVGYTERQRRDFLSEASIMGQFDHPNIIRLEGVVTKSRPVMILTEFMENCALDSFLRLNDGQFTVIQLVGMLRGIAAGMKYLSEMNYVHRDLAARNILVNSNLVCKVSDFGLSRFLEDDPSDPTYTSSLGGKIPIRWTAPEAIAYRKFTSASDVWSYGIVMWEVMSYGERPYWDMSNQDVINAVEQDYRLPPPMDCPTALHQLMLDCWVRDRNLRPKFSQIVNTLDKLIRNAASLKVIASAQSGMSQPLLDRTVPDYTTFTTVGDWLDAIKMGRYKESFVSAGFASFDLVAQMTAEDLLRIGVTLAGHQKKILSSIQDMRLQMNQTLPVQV
UniProt P06241, whole entry: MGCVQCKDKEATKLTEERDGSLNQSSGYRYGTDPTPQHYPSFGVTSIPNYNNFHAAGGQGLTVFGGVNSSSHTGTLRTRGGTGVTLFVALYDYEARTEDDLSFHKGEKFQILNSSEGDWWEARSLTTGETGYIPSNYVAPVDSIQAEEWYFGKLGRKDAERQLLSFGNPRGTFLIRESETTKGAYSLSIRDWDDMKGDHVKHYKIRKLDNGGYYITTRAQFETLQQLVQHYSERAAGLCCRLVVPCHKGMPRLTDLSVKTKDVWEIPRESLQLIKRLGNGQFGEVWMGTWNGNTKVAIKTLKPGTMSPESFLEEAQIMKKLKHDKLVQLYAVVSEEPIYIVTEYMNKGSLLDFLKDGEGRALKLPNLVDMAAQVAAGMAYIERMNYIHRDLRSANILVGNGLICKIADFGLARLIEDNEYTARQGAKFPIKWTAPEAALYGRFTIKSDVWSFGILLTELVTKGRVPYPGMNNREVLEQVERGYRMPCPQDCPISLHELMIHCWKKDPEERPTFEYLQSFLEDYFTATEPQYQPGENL

Columns and labels:
ABL1 = ABL1 (Homo sapiens, UniProt P00519); conditions: 1 μM; Run 1, Run 2
ABL2/ARG = ABL2/ARG (Homo sapiens, UniProt P42684); conditions: 1 μM; Run 1, Run 2
AKT3 = AKT3 (Homo sapiens, UniProt Q9Y243); conditions: 1 μM; Run 1, Run 2
Aurora A = Aurora A (Homo sapiens, UniProt O14965); conditions: 1 μM; Run 1, Run 2
BRK = BRK (Homo sapiens, UniProt Q13882); conditions: 1 μM; Run 1, Run 2
c-Kit = c-Kit (Homo sapiens, UniProt P10721); conditions: 1 μM; Run 1, Run 2
CDK14/cyclin Y (PFTK1) = CDK14/cyclin Y (PFTK1) (Homo sapiens, UniProt O94921); conditions: 1 μM; Run 1, Run 2
CLK1 = CLK1 (Homo sapiens, UniProt P49759); conditions: 1 μM; Run 1, Run 2
IKKb/IKBKB = IKKb/IKBKB (Homo sapiens, UniProt O14920); conditions: 1 μM; Run 1, Run 2
JAK3 = JAK3 (Homo sapiens, UniProt P52333); conditions: 1 μM; Run 1, Run 2
LATS1 = LATS1 (Homo sapiens, UniProt O95835); conditions: 1 μM; Run 1, Run 2
MST3/STK24 = MST3/STK24 (Homo sapiens, UniProt Q9Y6E0); conditions: 1 μM; Run 1, Run 2
NEK11 = NEK11 (Homo sapiens, UniProt Q8NG66); conditions: 1 μM; Run 1, Run 2
NIM1 = NIM1 (Homo sapiens, UniProt Q8IY84); conditions: 1 μM; Run 1, Run 2
P38g = P38g (Homo sapiens, UniProt P53778); conditions: 1 μM; Run 1, Run 2
PKCiota = PKCiota (Homo sapiens, UniProt P41743); conditions: 1 μM; Run 1, Run 2
PYK2 = PYK2 (Homo sapiens, UniProt Q14289); conditions: 1 μM; Run 1, Run 2
RSK3 = RSK3 (Homo sapiens, UniProt Q15349); conditions: 1 μM; Run 1, Run 2
SGK3/SGKL = SGK3/SGKL (Homo sapiens, UniProt Q96BR1); conditions: 1 μM; Run 1, Run 2
STK32C/YANK3 [1] = molecular target: T1, STK32C/YANK3 (Homo sapiens, UniProt Q86UX6); conditions: 1 μM; Run 1, Run 2
STK38L/NDR2 = STK38L/NDR2 (Homo sapiens, UniProt Q9Y2H1); conditions: 1 μM; Run 1, Run 2
CAMKK2 = CAMKK2 (Homo sapiens, UniProt Q96RR4); experiment: biochemical; conditions: read-out: % enzyme activity, 1 μM; Run 1, Run 2
CDK3/cyclin E = CDK3/cyclin E (Homo sapiens, UniProt Q00526); experiment: biochemical; conditions: read-out: % enzyme activity, 1 μM; Run 1, Run 2
CDK5/P25 = CDK5/P25 (Homo sapiens, UniProt Q00535); experiment: biochemical; conditions: read-out: % enzyme activity, 1 μM; Run 1, Run 2
DMPK2 = DMPK2 (Homo sapiens, UniProt Q6DT37); experiment: biochemical; conditions: read-out: % enzyme activity, 1 μM; Run 1, Run 2
EPHB3 = EPHB3 (Homo sapiens, UniProt P54753); experiment: biochemical; conditions: read-out: % enzyme activity, 1 μM; Run 1, Run 2
ERBB4/HER4 = ERBB4/HER4 (Homo sapiens, UniProt Q15303); experiment: biochemical; conditions: read-out: % enzyme activity, 1 μM; Run 1, Run 2
ERK1 = ERK1 (Homo sapiens, UniProt P27361); experiment: biochemical; conditions: read-out: % enzyme activity, 1 μM; Run 1, Run 2
ERK5/MAPK7 = ERK5/MAPK7 (Homo sapiens, UniProt Q13164); experiment: biochemical; conditions: read-out: % enzyme activity, 1 μM; Run 1, Run 2
FLT1/VEGFR1 = FLT1/VEGFR1 (Homo sapiens, UniProt P17948); experiment: biochemical; conditions: read-out: % enzyme activity, 1 μM; Run 1, Run 2
FYN = FYN (Homo sapiens, UniProt P06241); experiment: biochemical; conditions: read-out: % enzyme activity, 1 μM; Run 1, Run 2
IKKa/CHUK = IKKa/CHUK (Homo sapiens, UniProt O15111); experiment: biochemical; conditions: read-out: % enzyme activity, 1 μM; Run 1, Run 2
MST1/STK4 = MST1/STK4 (Homo sapiens, UniProt Q13043); experiment: biochemical; conditions: read-out: % enzyme activity, 1 μM; Run 1, Run 2
NEK5 = NEK5 (Homo sapiens, UniProt Q6P3R8); experiment: biochemical; conditions: read-out: % enzyme activity, 1 μM; Run 1, Run 2
p70S6K/RPS6KB1 = p70S6K/RPS6KB1 (Homo sapiens, UniProt P23443); experiment: biochemical; conditions: read-out: % enzyme activity, 1 μM; Run 1, Run 2
p70S6Kb/RPS6KB2 = p70S6Kb/RPS6KB2 (Homo sapiens, UniProt Q9UBS0); experiment: biochemical; conditions: read-out: % enzyme activity, 1 μM; Run 1, Run 2
PKCa = PKCa (Homo sapiens, UniProt P17252); experiment: biochemical; conditions: read-out: % enzyme activity, 1 μM; Run 1, Run 2
PKCepsilon = PKCepsilon (Homo sapiens, UniProt Q02156); experiment: biochemical; conditions: read-out: % enzyme activity, 1 μM; Run 1, Run 2
PLK4/SAK = PLK4/SAK (Homo sapiens, UniProt O00444); experiment: biochemical; conditions: read-out: % enzyme activity, 1 μM; Run 1, Run 2
STK32C/YANK3 [2] = molecular target: T1, STK32C/YANK3; experiment: biochemical; conditions: read-out: % enzyme activity, 1 μM; Run 1, Run 2
TAK1 = TAK1 (Homo sapiens, UniProt O43318); experiment: biochemical; conditions: read-out: % enzyme activity, 1 μM; Run 1, Run 2
WNK1 = WNK1 (Homo sapiens, UniProt Q9H4A3); experiment: biochemical; conditions: read-out: % enzyme activity, 1 μM; Run 1, Run 2

## COc1cc(-c2cncc(-c3ccc(N4CCN(C(C)C)CC4)cc3)c2C)cc(F)c1C(N)=O [Compound 26b, 2-Fluoro-4-(5-(4-(4-isopropylpiperazin-1-yl)phenyl)-4-methylpyridin-3-yl)-6-methoxybenzamide]
ABL1
  % enzyme activity: 80.78%
ABL2/ARG
  % enzyme activity: 98.48%
AKT3
  % enzyme activity: 97.15%
Aurora A
  % enzyme activity: 91.68%
BRK
  % enzyme activity: 64.33%
c-Kit
  % enzyme activity: 76.90%
CDK14/cyclin Y (PFTK1)
  % enzyme activity: 97.41%
CLK1
  % enzyme activity: 92.82%
IKKb/IKBKB
  % enzyme activity: 108.24%
JAK3
  % enzyme activity: 101.59%
LATS1
  % enzyme activity: 99.48%
MST3/STK24
  % enzyme activity: 107.63%
NEK11
  % enzyme activity: 89.23%
NIM1
  % enzyme activity: 93.25%
P38g
  % enzyme activity: 90.04%
PKCiota
  % enzyme activity: 95.18%
PYK2
  % enzyme activity: 81.78%
RSK3
  % enzyme activity: 99.21%
SGK3/SGKL
  % enzyme activity: 83.45%
STK32C/YANK3 [1]
  % enzyme activity: 90.70%
STK38L/NDR2
  % enzyme activity: 93.58%
CAMKK2
  remaining activity at 1 µM: 79.4%
CDK3/cyclin E
  remaining activity at 1 µM: 85.8%
CDK5/P25
  remaining activity at 1 µM: 93.6%
DMPK2
  remaining activity at 1 µM: 87%
EPHB3
  remaining activity at 1 µM: 94.8%
ERBB4/HER4
  remaining activity at 1 µM: 101%
ERK1
  remaining activity at 1 µM: 98.7%
ERK5/MAPK7
  remaining activity at 1 µM: 99.6%
FLT1/VEGFR1
  remaining activity at 1 µM: 98.2%
FYN
  remaining activity at 1 µM: 122%
IKKa/CHUK
  remaining activity at 1 µM: 85.6%
MST1/STK4
  remaining activity at 1 µM: 100%
NEK5
  remaining activity at 1 µM: 106%
p70S6K/RPS6KB1
  remaining activity at 1 µM: 97.8%
p70S6Kb/RPS6KB2
  remaining activity at 1 µM: 103%
PKCa
  remaining activity at 1 µM: 88.3%
PKCepsilon
  remaining activity at 1 µM: 97.8%
PLK4/SAK
  remaining activity at 1 µM: 94%
STK32C/YANK3 [2]
  remaining activity at 1 µM: 92.8%
TAK1
  remaining activity at 1 µM: 98.7%
WNK1
  remaining activity at 1 µM: 102%
